Here are results for four targets from the supplement of paper PMC10849652.

Chains of the proteins cited; added tags and fusions are not shown. Lines headed by an entry give the natural chain unless they say otherwise; changes in a name come on top.
UniProt Q92540: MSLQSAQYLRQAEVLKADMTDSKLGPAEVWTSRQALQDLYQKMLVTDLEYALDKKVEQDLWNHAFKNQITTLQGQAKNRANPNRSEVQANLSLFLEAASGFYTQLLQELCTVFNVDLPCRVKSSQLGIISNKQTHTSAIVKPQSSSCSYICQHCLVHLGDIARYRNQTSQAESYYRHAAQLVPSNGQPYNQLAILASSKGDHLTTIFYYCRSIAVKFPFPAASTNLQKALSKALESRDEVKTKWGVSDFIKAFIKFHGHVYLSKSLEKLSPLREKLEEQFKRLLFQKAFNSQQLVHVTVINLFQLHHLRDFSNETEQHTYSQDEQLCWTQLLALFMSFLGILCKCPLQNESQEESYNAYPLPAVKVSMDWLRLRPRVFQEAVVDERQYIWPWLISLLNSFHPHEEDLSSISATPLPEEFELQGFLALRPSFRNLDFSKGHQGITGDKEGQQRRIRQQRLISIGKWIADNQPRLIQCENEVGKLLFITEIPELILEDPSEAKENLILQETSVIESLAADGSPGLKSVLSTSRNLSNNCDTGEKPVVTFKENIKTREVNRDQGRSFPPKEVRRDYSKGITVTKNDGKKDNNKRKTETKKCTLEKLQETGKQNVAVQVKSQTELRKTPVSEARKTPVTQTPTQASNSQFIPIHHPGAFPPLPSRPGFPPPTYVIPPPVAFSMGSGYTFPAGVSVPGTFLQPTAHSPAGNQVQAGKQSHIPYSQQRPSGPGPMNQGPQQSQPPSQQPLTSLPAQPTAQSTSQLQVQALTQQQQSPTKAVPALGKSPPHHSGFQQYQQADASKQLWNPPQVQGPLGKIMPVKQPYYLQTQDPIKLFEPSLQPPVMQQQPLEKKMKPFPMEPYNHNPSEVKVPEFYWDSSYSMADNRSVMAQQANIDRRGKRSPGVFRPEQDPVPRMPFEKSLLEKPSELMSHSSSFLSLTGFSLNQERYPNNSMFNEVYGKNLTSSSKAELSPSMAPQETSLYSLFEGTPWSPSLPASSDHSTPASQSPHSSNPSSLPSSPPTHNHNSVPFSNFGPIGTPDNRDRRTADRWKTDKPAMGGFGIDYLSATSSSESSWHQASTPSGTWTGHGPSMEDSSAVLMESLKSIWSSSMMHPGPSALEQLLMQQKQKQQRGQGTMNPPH
UniProt Q9H0W8: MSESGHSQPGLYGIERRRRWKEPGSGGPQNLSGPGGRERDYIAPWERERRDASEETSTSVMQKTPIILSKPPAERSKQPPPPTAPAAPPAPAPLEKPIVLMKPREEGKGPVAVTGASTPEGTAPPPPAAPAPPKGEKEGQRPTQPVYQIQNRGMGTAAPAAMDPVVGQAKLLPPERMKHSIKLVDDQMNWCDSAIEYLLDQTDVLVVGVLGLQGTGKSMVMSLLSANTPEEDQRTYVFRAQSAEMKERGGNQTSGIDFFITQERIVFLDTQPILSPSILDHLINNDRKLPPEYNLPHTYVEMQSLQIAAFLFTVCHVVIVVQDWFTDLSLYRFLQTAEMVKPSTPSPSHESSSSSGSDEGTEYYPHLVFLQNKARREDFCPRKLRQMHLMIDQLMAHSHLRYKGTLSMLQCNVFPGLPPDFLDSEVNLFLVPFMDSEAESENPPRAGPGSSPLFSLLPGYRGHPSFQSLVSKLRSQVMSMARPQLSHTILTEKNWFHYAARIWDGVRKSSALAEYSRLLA

Holding throughout (experiment): log2 fold change, soluble protein after heating vs DMSO (PISA); higher = thermal stabilisation; K562 lysate, 10 uM; active = over 0.2 and 3.5 SD of the protein, either way, in both replicates (recomputed)
Compound in one assay: CS(=O)(=O)CCNCc1ccc(-c2ccc3ncnc(Nc4ccc(OCc5cccc(F)c5)c(Cl)c4)c3c2)o1 [lapatinib]
Put shortly:
(§1)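 Quantification was by TMTpro 16plex LC-MS/MS with equalised channel sums, applied to the supernatant after 21,000xg for 90 min. Samples were crude K562 extract at 1 mg/mL protein in PBS pH 7.4 with 1 mM MgCl2, treated with 10 μM compound for 30 min, heated for 3 min across 48°C-58°C, pooled and brought to 0.5% NP-40 at 4°C. Values are log-two fold changes in thermal stability relative to solvent controls, from duplicates.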

Compound in a further assay: CS(=O)(=O)N1CCN(Cc2cc3nc(-c4cccc5[nH]ncc45)nc(N4CCOCC4)c3s2)CC1 [pictilisib]
The gist of the method: as §1

Compound in another assay: C[C@@H](Oc1cc(-c2cnn(C3CCNCC3)c2)cnc1N)c1c(Cl)ccc(F)c1Cl [crizotinib]
The gist of the method:
as §1

Compound in assay [1]: C[C@H](C1=CC=C(C=C1)C(=O)NC2=C3C=CNC3=NC=C2)N
Put shortly: as §1

Compound in a further assay: C[C@H](Nc1ncnc2nc[nH]c12)c1cc2cccc(Cl)c2c(=O)n1-c1ccccc1 [duvelisib]
The gist of the method: as §1

Compound in a further assay: Cc1cc(Nc2cc(CN3CCOCC3)c3nc(C)c(Cc4ccc(Cl)cc4F)n3n2)n[nH]1 [gandotinib]
The gist of the method: as §1

Compound in the next assay: Cc1cc(Nc2cc(N3CCN(C)CC3)nc(Sc3ccc(NC(=O)C4CC4)cc3)n2)n[nH]1 [tozasertib]
Put shortly: as §1

Compound in a further assay: Cc1ccc(-n2nc(C(C)(C)C)cc2NC(=O)Nc2ccc(OCCN3CCOCC3)c3ccccc23)cc1 [doramapimod]
The gist of the method:
as §1

Compound in the next assay: Cc1ccc(NC(=O)c2ccc(CN3CC[C@H](N(C)C)C3)c(C(F)(F)F)c2)cc1Nc1nccc(-c2cncnc2)n1 [bafetinib]
The gist of the method: as §1

Compound in assay [2]: Cc1cccc(CC(=O)N2CCc3c2ccc(-c2cn(C)c4ncnc(N)c24)c3F)n1
The gist of the method:
as §1

Compound in a further assay: Cc1cn(-c2cc(NC(=O)c3ccc(C)c(Nc4nccc(-c5cccnc5)n4)c3)cc(C(F)(F)F)c2)cn1 [nilotinib]
The gist of the method: as §1

Compound in assay [3]: Cc1nc(Nc2n[nH]c3c2CN(C(=O)N[C@H](CN(C)C)c2ccccc2)C3(C)C)c2sccc2n1
Put shortly:
as §1

Compound in the next assay: Cc1nc(Nc2ncc(C(=O)Nc3c(C)cccc3Cl)s2)cc(N2CCN(CCO)CC2)n1 [dasatinib]
The gist of the method:
as §1

Compound in assay [4]: Cc1ncc(-c2ccnc(Nc3ccc(S(C)(=O)=O)cc3)n2)n1C(C)C
The gist of the method: as §1

Compound in assay [5]: Cn1cc(-c2ccc3c(c2)CCN3C(=O)Cc2cccc(C(F)(F)F)c2)c2c(N)ncnc21
Put shortly:
as §1

Compound in another assay: Cn1cc(CNCC2CCN(c3ncc(C(=O)NO)cn3)CC2)c2ccccc21 [quisinostat]
Put shortly: as §1

Compound in another assay: Cn1cncc1[C@@](N)(c1ccc(Cl)cc1)c1ccc2c(c1)c(-c1cccc(Cl)c1)cc(=O)n2C [tipifarnib]
The gist of the method:
as §1

Compound in assay [6]: NC(=O)Nc1cc(-c2cccc(F)c2)sc1C(=O)N[C@H]1CCCNC1
The gist of the method: as §1

Compound in assay [7]: NC(=O)c1cnc(N[C@@H]2CCCC[C@@H]2N)nc1Nc1cccc(-n2nccn2)c1
The gist of the method:
as §1

Compound in assay [8]: NC1(c2ccc(-c3nc4ccn5c(=O)[nH]nc5c4cc3-c3ccccc3)cc2)CCC1
The gist of the method: as §1

The list shows a part of the results.

For SOS1 (UniProt Q07889), the log2 fold change is inactive: -0.042 with lapatinib; inactive: -0.04 with pictilisib; inactive: -0.106 in the assay with crizotinib; inactive: 0.032 in [1]; inactive: 0.041 with duvelisib; inactive: 0.016 with gandotinib. The log2 fold change in the assay with tozasertib was inactive: -0.002; in the assay with doramapimod, inactive: 0.031; with bafetinib, inactive: -0.105; in assay [2], inactive: -0.01; in the assay with nilotinib it was inactive: -0.047; in [3], inactive: 0.021. Besides, the log2 fold change with dasatinib was inactive: -0.072; in [4], inactive: 0.052; in assay [5], inactive: 0.07; in the assay with quisinostat, inactive: -0.042; in the assay with tipifarnib it was inactive: -0.015; in [6], inactive: 0.065. The log2 fold change in [7] is inactive: 0.034; in assay [8], inactive: 0.035.
Take SNCA (UniProt P37840): the log2 fold change with lapatinib is inactive: 0.137; with pictilisib, inactive: -0.014; in the assay with crizotinib it was inactive: 0.127; in assay [1] it was inactive: -0.101; in the assay with duvelisib, inactive: -0.005; with gandotinib, active: 0.456. In addition, the log2 fold change is inactive: 0.016 with tozasertib; inactive: 0.196 in the assay with doramapimod; inactive: 0.098 with bafetinib; inactive: 0.073 in [2]; inactive: 0.148 with nilotinib; inactive: 0.075 in assay [3]. Further, the log2 fold change is inactive: 0.128 with dasatinib; inactive: -0.032 in assay [4]; inactive: 0.019 in assay [5]; inactive: -0.031 with quisinostat; inactive: 0.159 with tipifarnib; inactive: -0.112 in [6]. For the same target, the values for the log2 fold change in assay [7] and in assay [8] were inactive: -0.049 and inactive: 0, respectively.
Turning to SMG7 (UniProt Q92540), the log2 fold change with lapatinib is inactive: 0.101; with pictilisib it was inactive: 0.1; with crizotinib it was inactive: 0.043; in assay [1] it was inactive: -0.035; in the assay with duvelisib it was inactive: 0.026; in the assay with gandotinib, inactive: -0.018. For the same target, the log2 fold change in the assay with tozasertib is inactive: 0.026; with doramapimod, active: -0.257; in the assay with bafetinib it was inactive: -0.008; in assay [2], inactive: 0.022; in the assay with nilotinib it was inactive: 0.001; in assay [3], inactive: -0.034. The log2 fold change with dasatinib was inactive: 0.003; in [4], inactive: -0.058; in assay [5], inactive: 0.03; in the assay with quisinostat, inactive: 0.062; with tipifarnib, inactive: -0.072; in assay [6] it was inactive: 0.054. For the same target, the log2 fold change was inactive: -0.067 in assay [7] and inactive: 0.04 in assay [8].
In the case of SMG9 (UniProt Q9H0W8), the log2 fold change with lapatinib is inactive: 0; with pictilisib it was inactive: -0.04; with crizotinib it was inactive: -0.058; in assay [1] it was inactive: -0.062; with duvelisib it was inactive: 0.012; with gandotinib, inactive: -0.004. Further, the log2 fold change with tozasertib was inactive: 0.027; with doramapimod it was inactive: -0.069; with bafetinib, inactive: -0.067; in assay [2], inactive: 0.074; with nilotinib it was inactive: -0.024; in assay [3], inactive: 0.033. Also, the log2 fold change with dasatinib was inactive: -0.081; in assay [4], inactive: -0.015; in assay [5] it was inactive: 0.057; with quisinostat, inactive: -0.122; with tipifarnib, inactive: -0.011; in assay [6], inactive: 0.043. The values for the log2 fold change in assay [7] and in assay [8] were inactive: 0.021 and inactive: -0.042, respectively.
